According to the supplement of paper PMC10849652:
This is one part of the list.

Sequences of proteins named here, by UniProt entry; tags and fusion partners are left off. A change or cut given only in a name is not applied to a line headed by its entry.
UniProt Q96S38: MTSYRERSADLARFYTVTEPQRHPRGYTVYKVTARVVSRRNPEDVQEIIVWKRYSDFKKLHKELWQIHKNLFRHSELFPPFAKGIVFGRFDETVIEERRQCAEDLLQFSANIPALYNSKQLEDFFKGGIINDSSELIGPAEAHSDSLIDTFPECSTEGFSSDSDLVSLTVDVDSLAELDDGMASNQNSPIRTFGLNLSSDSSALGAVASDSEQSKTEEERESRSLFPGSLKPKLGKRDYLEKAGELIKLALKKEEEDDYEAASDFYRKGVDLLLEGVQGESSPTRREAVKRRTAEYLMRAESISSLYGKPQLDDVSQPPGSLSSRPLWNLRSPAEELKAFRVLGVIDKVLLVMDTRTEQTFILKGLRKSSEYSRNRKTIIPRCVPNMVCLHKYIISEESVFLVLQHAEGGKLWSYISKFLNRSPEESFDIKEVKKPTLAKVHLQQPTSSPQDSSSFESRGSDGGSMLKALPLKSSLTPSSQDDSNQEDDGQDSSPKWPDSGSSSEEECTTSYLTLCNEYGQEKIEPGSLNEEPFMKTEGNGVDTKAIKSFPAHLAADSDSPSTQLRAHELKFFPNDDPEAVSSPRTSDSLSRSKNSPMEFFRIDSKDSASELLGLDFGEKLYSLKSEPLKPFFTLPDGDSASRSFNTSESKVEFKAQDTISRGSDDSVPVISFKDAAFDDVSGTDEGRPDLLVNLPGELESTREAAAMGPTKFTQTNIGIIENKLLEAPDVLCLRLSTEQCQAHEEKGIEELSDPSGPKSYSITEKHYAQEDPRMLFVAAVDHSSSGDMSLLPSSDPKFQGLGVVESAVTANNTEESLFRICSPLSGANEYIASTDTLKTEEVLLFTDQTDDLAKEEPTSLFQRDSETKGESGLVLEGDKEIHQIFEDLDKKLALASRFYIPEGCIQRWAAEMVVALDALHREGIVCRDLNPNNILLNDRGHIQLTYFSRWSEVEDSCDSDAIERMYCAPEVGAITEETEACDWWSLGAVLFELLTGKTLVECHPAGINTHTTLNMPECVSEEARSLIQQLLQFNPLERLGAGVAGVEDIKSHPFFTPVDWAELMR
UniProt Q9H633: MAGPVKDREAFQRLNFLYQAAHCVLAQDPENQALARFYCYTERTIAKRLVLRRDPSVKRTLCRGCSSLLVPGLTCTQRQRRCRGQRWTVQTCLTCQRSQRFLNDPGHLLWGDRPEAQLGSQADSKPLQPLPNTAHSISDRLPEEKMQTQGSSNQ
UniProt O75116: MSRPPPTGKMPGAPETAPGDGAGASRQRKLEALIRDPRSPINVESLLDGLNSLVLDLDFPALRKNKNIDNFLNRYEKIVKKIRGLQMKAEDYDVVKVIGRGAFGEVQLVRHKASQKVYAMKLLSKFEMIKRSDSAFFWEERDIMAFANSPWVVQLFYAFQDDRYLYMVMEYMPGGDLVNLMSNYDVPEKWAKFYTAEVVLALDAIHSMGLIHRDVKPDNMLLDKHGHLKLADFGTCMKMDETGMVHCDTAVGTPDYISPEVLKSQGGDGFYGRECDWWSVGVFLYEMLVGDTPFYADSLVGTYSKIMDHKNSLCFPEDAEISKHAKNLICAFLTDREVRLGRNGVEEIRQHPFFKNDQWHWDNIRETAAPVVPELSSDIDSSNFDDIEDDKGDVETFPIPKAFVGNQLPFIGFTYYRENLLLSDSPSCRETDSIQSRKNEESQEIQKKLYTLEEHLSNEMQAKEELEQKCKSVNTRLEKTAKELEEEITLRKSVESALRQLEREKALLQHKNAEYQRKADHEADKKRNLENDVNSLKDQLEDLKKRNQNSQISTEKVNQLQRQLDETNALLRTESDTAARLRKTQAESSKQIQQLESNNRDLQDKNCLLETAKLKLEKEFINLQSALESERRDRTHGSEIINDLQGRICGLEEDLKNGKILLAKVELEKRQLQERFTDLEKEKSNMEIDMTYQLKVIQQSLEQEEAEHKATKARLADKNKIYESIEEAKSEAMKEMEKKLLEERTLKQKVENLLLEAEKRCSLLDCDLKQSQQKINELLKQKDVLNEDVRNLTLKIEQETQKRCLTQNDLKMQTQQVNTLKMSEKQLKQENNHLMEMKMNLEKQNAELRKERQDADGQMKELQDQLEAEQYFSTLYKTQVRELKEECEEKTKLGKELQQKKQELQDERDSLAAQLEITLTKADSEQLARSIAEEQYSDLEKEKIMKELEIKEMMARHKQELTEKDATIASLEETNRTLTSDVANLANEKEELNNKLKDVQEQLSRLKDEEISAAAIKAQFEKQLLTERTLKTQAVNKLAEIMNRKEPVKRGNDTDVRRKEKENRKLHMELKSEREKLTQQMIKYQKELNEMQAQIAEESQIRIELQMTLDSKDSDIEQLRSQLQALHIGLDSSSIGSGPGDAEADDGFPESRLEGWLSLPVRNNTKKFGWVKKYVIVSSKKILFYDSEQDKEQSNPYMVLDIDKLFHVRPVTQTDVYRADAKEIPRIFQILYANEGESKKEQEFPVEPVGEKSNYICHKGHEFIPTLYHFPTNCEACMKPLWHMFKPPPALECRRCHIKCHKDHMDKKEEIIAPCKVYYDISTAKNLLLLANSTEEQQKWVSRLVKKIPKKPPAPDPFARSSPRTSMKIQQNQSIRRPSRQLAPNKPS
UniProt O60942: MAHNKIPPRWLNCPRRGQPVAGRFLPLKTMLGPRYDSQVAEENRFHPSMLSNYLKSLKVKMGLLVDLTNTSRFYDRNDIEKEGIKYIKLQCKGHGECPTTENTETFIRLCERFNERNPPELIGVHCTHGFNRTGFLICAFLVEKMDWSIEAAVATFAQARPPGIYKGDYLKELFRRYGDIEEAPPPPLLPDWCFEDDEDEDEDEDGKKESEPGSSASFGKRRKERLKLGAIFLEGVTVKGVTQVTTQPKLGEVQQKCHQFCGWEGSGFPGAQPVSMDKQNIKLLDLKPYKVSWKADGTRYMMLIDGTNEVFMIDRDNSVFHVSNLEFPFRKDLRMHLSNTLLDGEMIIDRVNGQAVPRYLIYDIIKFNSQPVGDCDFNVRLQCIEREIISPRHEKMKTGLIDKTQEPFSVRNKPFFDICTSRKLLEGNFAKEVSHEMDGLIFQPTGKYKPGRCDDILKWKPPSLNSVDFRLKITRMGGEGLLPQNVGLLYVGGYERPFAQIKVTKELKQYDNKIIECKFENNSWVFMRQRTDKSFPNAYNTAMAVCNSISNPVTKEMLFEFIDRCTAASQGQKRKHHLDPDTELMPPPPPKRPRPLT
UniProt P13489: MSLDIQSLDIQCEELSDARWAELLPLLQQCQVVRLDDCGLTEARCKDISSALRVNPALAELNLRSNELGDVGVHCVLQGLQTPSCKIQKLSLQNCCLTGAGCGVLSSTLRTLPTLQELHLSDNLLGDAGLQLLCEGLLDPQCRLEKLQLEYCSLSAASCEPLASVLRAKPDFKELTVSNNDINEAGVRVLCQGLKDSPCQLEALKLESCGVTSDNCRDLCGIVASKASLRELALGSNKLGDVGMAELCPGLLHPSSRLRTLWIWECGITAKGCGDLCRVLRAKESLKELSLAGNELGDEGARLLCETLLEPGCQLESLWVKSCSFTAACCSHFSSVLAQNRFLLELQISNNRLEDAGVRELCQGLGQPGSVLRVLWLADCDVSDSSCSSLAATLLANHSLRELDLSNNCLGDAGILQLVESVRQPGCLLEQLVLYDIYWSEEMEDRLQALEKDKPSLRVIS
UniProt P78345: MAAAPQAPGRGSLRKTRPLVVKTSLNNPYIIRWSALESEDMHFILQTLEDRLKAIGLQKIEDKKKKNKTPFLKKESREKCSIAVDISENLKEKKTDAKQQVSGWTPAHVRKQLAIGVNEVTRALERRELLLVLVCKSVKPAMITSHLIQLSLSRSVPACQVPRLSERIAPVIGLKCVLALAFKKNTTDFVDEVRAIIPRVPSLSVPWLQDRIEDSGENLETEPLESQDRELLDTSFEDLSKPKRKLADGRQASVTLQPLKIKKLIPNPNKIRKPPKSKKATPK
UniProt Q8TA86: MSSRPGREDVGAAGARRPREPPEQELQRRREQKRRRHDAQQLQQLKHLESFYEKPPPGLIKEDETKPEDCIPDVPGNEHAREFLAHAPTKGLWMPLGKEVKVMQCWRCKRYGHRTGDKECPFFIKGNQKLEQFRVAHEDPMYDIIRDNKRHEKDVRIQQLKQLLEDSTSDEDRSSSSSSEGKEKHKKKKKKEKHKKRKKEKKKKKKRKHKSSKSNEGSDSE
UniProt P35244: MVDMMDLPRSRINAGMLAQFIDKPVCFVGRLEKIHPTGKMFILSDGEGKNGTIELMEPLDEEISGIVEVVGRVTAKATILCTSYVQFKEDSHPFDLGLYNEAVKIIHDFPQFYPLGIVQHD
UniProt O95059: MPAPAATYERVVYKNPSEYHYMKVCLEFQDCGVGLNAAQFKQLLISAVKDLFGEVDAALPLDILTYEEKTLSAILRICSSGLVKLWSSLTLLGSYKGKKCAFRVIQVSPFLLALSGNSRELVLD
UniProt P10155: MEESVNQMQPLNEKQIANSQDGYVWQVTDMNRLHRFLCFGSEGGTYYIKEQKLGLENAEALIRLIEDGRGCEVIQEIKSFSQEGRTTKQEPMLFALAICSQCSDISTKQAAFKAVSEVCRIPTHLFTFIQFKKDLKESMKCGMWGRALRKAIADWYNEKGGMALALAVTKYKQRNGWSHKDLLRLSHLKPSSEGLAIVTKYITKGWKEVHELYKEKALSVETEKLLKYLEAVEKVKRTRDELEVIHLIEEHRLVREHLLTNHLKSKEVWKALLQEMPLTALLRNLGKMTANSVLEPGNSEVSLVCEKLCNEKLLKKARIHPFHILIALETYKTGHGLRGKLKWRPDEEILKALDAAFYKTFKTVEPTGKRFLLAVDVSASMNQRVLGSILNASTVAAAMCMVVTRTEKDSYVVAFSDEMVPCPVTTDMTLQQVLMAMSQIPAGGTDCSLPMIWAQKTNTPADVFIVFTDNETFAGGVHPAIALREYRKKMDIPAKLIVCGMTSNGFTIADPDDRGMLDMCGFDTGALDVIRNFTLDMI
UniProt P04844: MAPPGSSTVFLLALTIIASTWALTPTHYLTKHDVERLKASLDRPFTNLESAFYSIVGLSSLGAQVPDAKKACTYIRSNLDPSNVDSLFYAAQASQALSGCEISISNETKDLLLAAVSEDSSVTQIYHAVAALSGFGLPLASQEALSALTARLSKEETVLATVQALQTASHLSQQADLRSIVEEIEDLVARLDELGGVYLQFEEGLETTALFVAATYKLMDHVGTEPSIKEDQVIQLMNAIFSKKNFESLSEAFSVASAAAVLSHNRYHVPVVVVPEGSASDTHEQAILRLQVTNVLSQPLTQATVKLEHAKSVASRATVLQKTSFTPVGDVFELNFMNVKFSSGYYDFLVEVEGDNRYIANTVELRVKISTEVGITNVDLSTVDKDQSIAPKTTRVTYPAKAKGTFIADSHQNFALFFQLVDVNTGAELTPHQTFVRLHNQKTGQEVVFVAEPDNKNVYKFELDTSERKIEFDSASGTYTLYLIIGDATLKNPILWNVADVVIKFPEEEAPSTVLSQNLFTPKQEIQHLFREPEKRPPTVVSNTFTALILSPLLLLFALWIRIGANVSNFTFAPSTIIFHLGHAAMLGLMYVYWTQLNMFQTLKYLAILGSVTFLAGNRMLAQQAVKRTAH

Legend:
Test in all cases: log2 fold change, soluble protein after heating vs DMSO (PISA); higher = thermal stabilisation; K562 cells, 10 uM, 30 min; active = over 0.2 and 3.5 SD of the protein, either way, in both replicates (recomputed)
[1] = compound: Cc1ccc(NC(=O)c2ccc(CN3CC[C@H](N(C)C)C3)c(C(F)(F)F)c2)cc1Nc1nccc(-c2cncnc2)n1 [bafetinib]
Outline: (§1)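 For each measurement, 10 μM compound was applied for 30 min to K562 cells at 2×10^6 cells/mL. Aliquots were heated for 3 min across 48°C-58°C, pooled, and extracted in PBS with 0.5% NP-40 at 4°C; the supernatant after 21,000xg for 90 min was soluble protein. This was quantified by TMTpro 16plex LC-MS/MS with channel sums equalised, and thermal stability was reported relative to control samples from duplicates, on a log2 fold-change scale.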

[2] = compound: Cc1cccc(CC(=O)N2CCc3c2ccc(-c2cn(C)c4ncnc(N)c24)c3F)n1
Outline: as §1

[3] = compound: Cc1cn(-c2cc(NC(=O)c3ccc(C)c(Nc4nccc(-c5cccnc5)n4)c3)cc(C(F)(F)F)c2)cn1 [nilotinib]
Outline: as §1

[4] = compound: Cc1nc(Nc2n[nH]c3c2CN(C(=O)N[C@H](CN(C)C)c2ccccc2)C3(C)C)c2sccc2n1
Outline: as §1

[5] = compound: Cc1nc(Nc2ncc(C(=O)Nc3c(C)cccc3Cl)s2)cc(N2CCN(CCO)CC2)n1 [dasatinib]
Outline: as §1

[6] = compound: Cc1ncc(-c2ccnc(Nc3ccc(S(C)(=O)=O)cc3)n2)n1C(C)C
Outline: as §1

[7] = compound: Cn1cc(-c2ccc3c(c2)CCN3C(=O)Cc2cccc(C(F)(F)F)c2)c2c(N)ncnc21
Outline: as §1

[8] = compound: Cn1cc(-c2ccc3nnc(C(F)(F)c4ccc5ncccc5c4)n3n2)cn1
Outline: as §1

[9] = compound: Cn1cncc1[C@@](N)(c1ccc(Cl)cc1)c1ccc2c(c1)c(-c1cccc(Cl)c1)cc(=O)n2C [tipifarnib]
Outline: as §1

[10] = compound: FC(F)(F)c1ccc(/C=C/c2nc(COc3ccc(CCCCn4ccnn4)cc3)co2)cc1 [mubritinib]
Outline: as §1

Measured: log2 fold change

RPS6KC1 (UniProt Q96S38)
inactive: [1] -0.247 | [2] 0.238 | [3] 0.009 | [4] -0.147 | [5] 0.031 | [6] 0.009 | [7] 0.042 | [8] -0.056 | [9] 0.037 | [10] 0.035

RPLP0 (UniProt P05388)
inactive: [1] 0.513 | [2] 0.013 | [3] -0.019 | [4] 0.218 | [5] 0.347 | [6] -0.033 | [7] -0.579 | [8] -0.23 | [9] 0.424 | [10] -0.338

RPL22 (UniProt P35268)
inactive: [1] 0.232 | [2] -0.002 | [3] -0.009 | [4] 0.182 | [5] 0.115 | [6] -0.017 | [7] -0.111 | [8] -0.078 | [9] 0.018 | [10] -0.101

RPSA (UniProt P08865)
inactive: [1] 0.081 | [2] -0.044 | [3] 0.005 | [4] 0.1 | [5] 0.054 | [6] -0.042 | [7] -0.023 | [8] 0.005 | [9] 0.013 | [10] 0

RPP21 isoform 4 (UniProt Q9H633)
inactive: [1] -0.036 | [2] 0.284 | [3] 0.013 | [4] -0.07 | [5] -0.022 | [6] -0.027 | [7] -0.043 | [8] -0.093 | [9] -0.011 | [10] 0.007

RPL10 (UniProt P27635)
inactive: [1] 0.446 | [2] -0.005 | [3] -0.013 | [4] 0.232 | [5] 0.155 | [6] -0.038 | [7] -0.414 | [8] -0.178 | [9] 0.189 | [10] -0.281

ROCK2 (UniProt O75116)
inactive: [1] -0.033 | [2] -0.006 | [3] -0.05 | [4] -0.202 | [5] -0.064 | [6] 0.009 | [7] -0.091 | [8] 0.014 | [9] -0.008 | [10] 0.013

RNGTT (UniProt O60942)
inactive: [1] 0.143 | [2] 0.03 | [3] -0.007 | [4] -0.096 | [5] -0.172 | [6] 0.042 | [7] 0.015 | [8] 0.028 | [9] -0.07 | [10] -0.045

RNH1 (UniProt P13489)
inactive: [1] -0.032 | [2] 0.035 | [3] -0.05 | [4] 0.019 | [5] -0.028 | [6] -0.032 | [7] 0.037 | [8] 0.018 | [9] -0.072 | [10] 0.032

RPP38 (UniProt P78345)
inactive: [1] 0.042 | [2] -0.02 | [3] 0.013 | [4] -0.086 | [5] 0.012 | [6] -0.02 | [7] -0.026 | [8] -0.009 | [9] 0.055 | [10] 0.021

RP9 (UniProt Q8TA86)
inactive: [1] 0.215 | [2] 0.074 | [3] -0.065 | [4] -0.012 | [5] 0 | [6] 0.01 | [7] -0.121 | [8] -0.147 | [9] 0.097 | [10] -0.146

RPL6 (UniProt Q02878)
inactive: [1] 0.609 | [2] 0.001 | [3] 0.006 | [4] 0.277 | [5] 0.324 | [6] -0.028 | [7] -0.488 | [8] -0.254 | [9] 0.412 | [10] -0.388

RPL5 (UniProt P46777)
inactive: [1] 0.179 | [2] 0 | [3] 0.067 | [4] 0.118 | [5] 0.185 | [6] -0.017 | [7] -0.247 | [8] -0.127 | [9] 0.094 | [10] -0.163

RPL27A (UniProt P46776)
inactive: [1] 0.39 | [2] -0.003 | [3] 0.073 | [4] 0.215 | [5] 0.295 | [6] -0.015 | [7] -0.542 | [8] -0.233 | [9] 0.32 | [10] -0.271

RPA3 (UniProt P35244)
inactive: [1] 0.023 | [2] 0.086 | [3] -0.034 | [4] -0.047 | [5] 0.016 | [6] 0.022 | [7] 0.105 | [8] -0.002 | [9] 0.014 | [10] 0.024

Five consecutive records out of the list so far:
RNH1 (UniProt P13489)
inactive: [1] -0.032 | [2] 0.035 | [3] -0.05 | [4] 0.019 | [5] -0.028 | [6] -0.032 | [7] 0.037 | [8] 0.018 | [9] -0.072 | [10] 0.032

RPP38 (UniProt P78345)
inactive: [1] 0.042 | [2] -0.02 | [3] 0.013 | [4] -0.086 | [5] 0.012 | [6] -0.02 | [7] -0.026 | [8] -0.009 | [9] 0.055 | [10] 0.021

RP9 (UniProt Q8TA86)
inactive: [1] 0.215 | [2] 0.074 | [3] -0.065 | [4] -0.012 | [5] 0 | [6] 0.01 | [7] -0.121 | [8] -0.147 | [9] 0.097 | [10] -0.146

RPL6 (UniProt Q02878)
inactive: [1] 0.609 | [2] 0.001 | [3] 0.006 | [4] 0.277 | [5] 0.324 | [6] -0.028 | [7] -0.488 | [8] -0.254 | [9] 0.412 | [10] -0.388

RPL5 (UniProt P46777)
inactive: [1] 0.179 | [2] 0 | [3] 0.067 | [4] 0.118 | [5] 0.185 | [6] -0.017 | [7] -0.247 | [8] -0.127 | [9] 0.094 | [10] -0.163

Additional results.

RPS4X (UniProt P62701)
inactive: [1] 0.332 | [2] 0 | [3] 0.051 | [4] 0.206 | [5] 0.061 | [6] -0.048 | [7] -0.251 | [8] -0.079 | [9] 0.112 | [10] -0.105

RPS19 (UniProt P39019)
inactive: [1] 0.242 | [2] -0.026 | [3] 0.046 | [4] 0.181 | [5] 0.083 | [6] -0.021 | [7] -0.11 | [8] -0.068 | [9] 0.055 | [10] -0.037

RPL14 (UniProt P50914)
inactive: [1] 0.595 | [2] 0 | [3] 0.039 | [4] 0.261 | [5] 0.32 | [6] -0.037 | [7] -0.505 | [8] -0.137 | [9] 0.452 | [10] -0.364

RPL7A (UniProt P62424)
inactive: [1] 0.586 | [2] 0.008 | [3] 0.035 | [4] 0.213 | [5] 0.296 | [6] -0.026 | [7] -0.498 | [8] -0.235 | [9] 0.413 | [10] -0.385

RPL15 (UniProt P61313)
inactive: [1] 0.565 | [2] 0.017 | [3] -0.008 | [4] 0.217 | [5] 0.374 | [6] -0.058 | [7] -0.674 | [8] -0.293 | [9] 0.494 | [10] -0.353

RPP14 (UniProt O95059)
inactive: [1] 0.045 | [2] 0 | [3] -0.014 | [4] 0.019 | [5] 0.063 | [6] -0.013 | [7] -0.078 | [8] -0.054 | [9] 0.003 | [10] -0.084

RO60 (UniProt P10155)
inactive: [1] -0.113 | [2] -0.064 | [3] 0.005 | [4] 0.027 | [5] 0.031 | [6] -0.021 | [7] -0.021 | [8] -0.006 | [9] 0.003 | [10] 0

RPL30 (UniProt P62888)
inactive: [1] 0.542 | [2] 0.003 | [3] 0.029 | [4] 0.227 | [5] 0.253 | [6] -0.019 | [7] -0.538 | [8] -0.254 | [9] 0.383 | [10] -0.375

RPL23 (UniProt P62829)
inactive: [1] 0.328 | [2] -0.023 | [3] 0.025 | [4] 0.259 | [5] 0.141 | [6] -0.008 | [7] -0.234 | [8] -0.092 | [9] 0.083 | [10] -0.112

RPL17 isoform 3 (UniProt P18621)
inactive: [1] 0.148 | [2] -0.057 | [3] 0.054 | [4] 0.158 | [5] 0.188 | [6] -0.025 | [7] -0.38 | [8] -0.144 | [9] 0.155 | [10] -0.182

RPN2 (UniProt P04844)
inactive: [1] 0 | [2] 0.026 | [3] -0.046 | [4] 0.002 | [5] 0.003 | [6] -0.046 | [7] -0.033 | [8] 0.014 | [9] -0.02 | [10] -0.015

RPS16 (UniProt P62249)
inactive: [1] 0.279 | [2] -0.026 | [3] 0.07 | [4] 0.207 | [5] 0.053 | [6] -0.019 | [7] -0.078 | [8] -0.048 | [9] 0.107 | [10] -0.066
